Reference: PubChem BioAssay AID1224826 (NIAID, 2016)

- Assay: 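Knock-downs that raise or lower Tnf reporter signal after endotoxin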 (primary screen)
- Cells: RAW264.7 G9 macrophages from mouse bearing reporters for p65 (GFP) and the Tnf promoter (mCherry)
- Reagent: siRNA pool against mouse genes, 100 nM
- Duration: 16 h of LPS stimulation, after 2 days of siRNA transfection
- Challenge: bacterial lipopolysaccharide (Salmonella minnesota R595), 10 ng/ml
- Measured: 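Imaged Tnf reporter mCherry in nuclei, minus background, normalised per plate to the median and expressed as robust z-scores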
- Direction: Tnf reporter robust z-score: higher = stronger Tnf promoter reporter signal after LPS; Tnf reporter intensity: higher = stronger Tnf promoter reporter signal
- Call rule: 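Called active when robust z-score is at most -1.3, matching the median of the Tlr4 knock-down control, or over 3; control wells and wells with under 50 cells never active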
- Meaning of the calls: active = Tnf reporter clearly lowered or raised; inactive = no clear change in Tnf reporter
In all, the deposit lists about 17,000 reagents; this is a random part of them. Of all reagents, about 1,110 (6.6%) are marked active. 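Active means lowered or raised reporter signal; replicate intensities are raw and not normalised per plate.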

| gene symbol | PubChem SID | Tnf reporter robust z-score | fewer than 50 cells in well | Tnf reporter intensity, replicate 1 | Tnf reporter intensity, replicate 2 | outcome |
| --- | --- | --- | --- | --- | --- | --- |
| Fam120c (family with sequence similarity 120, member C) | SID315477480 | 0.32 | enough cells in well | 115 | 194 | inactive |
| Sdc4 (syndecan 4) | SID315469552 | 0.44 | enough cells in well | 334 | 235 | inactive |
| Cep295 (centrosomal protein 295) | SID315481147 | -0.94 | enough cells in well | 129 | 92.7 | inactive |
| Rspry1 (ring finger and SPRY domain containing 1) | SID315473126 | 0.16 | enough cells in well | 140 | 196 | inactive |
| Nfatc4 | SID315474689 | -0.02 | enough cells in well | 262 | 203 | inactive |
| Mcf2l (mcf.2 transforming sequence-like) | SID315467858 | 1.17 | enough cells in well | 230 | 233 | inactive |
| Tmem150a (transmembrane protein 150A) | SID315478957 | -0.43 | enough cells in well | 158 | 197 | inactive |
| Siglec1 (sialic acid binding Ig-like lectin 1, sialoadhesin) | SID315469350 | – | fewer than 50 cells per well; well left out of calls | 140 | 37 | inactive |
| Myom1 (myomesin 1) | SID315468085 | -0.8 | enough cells in well | 180 | 69.2 | inactive |
| Rbm38 (RNA binding motif protein 38) | SID315471388 | -0.86 | enough cells in well | 83.6 | 98.2 | inactive |
| Eya4 (EYA transcriptional coactivator and phosphatase 4) | SID315466594 | -0.18 | enough cells in well | 211 | 221 | inactive |
| Parn (poly(A)-specific ribonuclease (deadenylation nuclease)) | SID315474848 | 1.71 | enough cells in well | 232 | 169 | inactive |
| Rhbdl3 (rhomboid like 3) | SID315479862 | -0.2 | enough cells in well | 120 | 119 | inactive |
| Sgk2 (serum/glucocorticoid regulated kinase 2) | SID315470550 | 0.89 | enough cells in well | 272 | 193 | inactive |
| Prpf31 (pre-mRNA processing factor 31) | SID315473690 | -0.8 | enough cells in well | 114 | 116 | inactive |
| Tdrd12 (tudor domain containing 12) | SID315474403 | – | fewer than 50 cells per well; well left out of calls | 141 | 38.1 | inactive |
| Rab34 (RAB34, member RAS oncogene family) | SID315468887 | 2.13 | enough cells in well | 209 | 237 | inactive |
| Lrrc14 (leucine rich repeat containing 14) | SID315478275 | 2.62 | enough cells in well | 407 | 418 | inactive |
| Ebf4 (early B cell factor 4) | SID315478642 | 0.35 | enough cells in well | 262 | 93.4 | inactive |
| Gtf3c5 (general transcription factor IIIC, polypeptide 5) | SID315473999 | -0.85 | enough cells in well | 176 | 174 | inactive |
| Fam111a (family with sequence similarity 111, member A) | SID315476598 | – | fewer than 50 cells per well; well left out of calls | 92 | 41.6 | inactive |
| Preb (prolactin regulatory element binding) | SID315470875 | 0.39 | enough cells in well | 257 | 236 | inactive |
| Cdh15 (cadherin 15) | SID315465897 | 0.37 | enough cells in well | 269 | 242 | inactive |
| Abi3 (ABI family member 3) | SID315472538 | 0.37 | enough cells in well | 193 | 248 | inactive |
| Paf1 (Paf1, RNA polymerase II complex component) | SID315471270 | 0.11 | enough cells in well | 189 | 155 | inactive |
| Ros1 (Ros1 proto-oncogene, receptor tyrosine kinase) | SID315469000 | -0.72 | enough cells in well | 142 | 128 | inactive |
| M1ap (meiosis 1 associated protein) | SID315476957 | -0.79 | enough cells in well | 162 | 99.3 | inactive |
| Dnajb5 (DnaJ heat shock protein family (Hsp40) member B5) | SID315471458 | 0.54 | enough cells in well | 249 | 118 | inactive |
| Luc7l3 (LUC7-like 3 (S. cerevisiae)) | SID315473165 | 2.37 | enough cells in well | 278 | 291 | inactive |
| Fzd10 (frizzled class receptor 10) | SID315476007 | 0.4 | enough cells in well | 224 | 369 | inactive |
| Dhodh (dihydroorotate dehydrogenase) | SID315471671 | -1.02 | enough cells in well | 143 | 144 | inactive |
| Mark2 (MAP/microtubule affinity regulating kinase 2) | SID315466492 | 1.91 | enough cells in well | 311 | 147 | inactive |
| Hcrtr1 (hypocretin (orexin) receptor 1) | SID315478824 | 0.41 | enough cells in well | 251 | 232 | inactive |
| Igf1r (insulin-like growth factor I receptor) | SID315467404 | -1.09 | enough cells in well | 104 | 119 | inactive |
| Gdpd2 (glycerophosphodiester phosphodiesterase domain containing 2) | SID315474256 | 0.08 | enough cells in well | 215 | 166 | inactive |
| Gabra3 (gamma-aminobutyric acid type A receptor subunit alpha 3) | SID315466796 | -1.03 | enough cells in well | 188 | 134 | inactive |
| Kcnt1 (potassium channel, subfamily T, member 1) | SID315478576 | -0.82 | enough cells in well | 102 | 116 | inactive |
| Gm5114 (predicted gene 5114) | SID315481601 | – | fewer than 50 cells per well; well left out of calls | 146 | 52 | inactive |
| Trp53inp1 | SID315472035 | -0.05 | enough cells in well | 236 | 215 | inactive |
| Pum2 (pumilio RNA-binding family member 2) | SID315475759 | -0.42 | enough cells in well | 125 | 97.5 | inactive |
| Urgcp (upregulator of cell proliferation) | SID315474432 | – | fewer than 50 cells per well; well left out of calls | 114 | 40 | inactive |
| Sh3gl3 (SH3-domain GRB2-like 3) | SID315469216 | -0.44 | enough cells in well | 225 | 194 | inactive |
| Pcdhb16 (protocadherin beta 16) | SID315475999 | -0.4 | enough cells in well | 128 | 115 | inactive |
| Slc6a20b | SID315470070 | 1.04 | enough cells in well | 136 | 108 | inactive |
| D17H6S56E-5 (DNA segment, Chr 17, human D6S56E 5) | SID315476955 | -0.56 | enough cells in well | 338 | 120 | inactive |
| Ear1 (eosinophil-associated, ribonuclease A family, member 1) | SID315466417 | 0.41 | enough cells in well | 213 | 192 | inactive |
| Usp6nl (USP6 N-terminal like) | SID315476153 | 0.79 | enough cells in well | 272 | 226 | inactive |
| Bpi (bactericidal permeablility increasing protein) | SID315481535 | 1.3 | enough cells in well | 220 | 235 | inactive |
| Pld5 (phospholipase D family member 5) | SID315481091 | 0.05 | enough cells in well | 173 | 168 | inactive |
| Stab1 (stabilin 1) | SID315477393 | -0.88 | enough cells in well | 69.8 | 70.2 | inactive |
| Rab36 (RAB36, member RAS oncogene family) | SID315475397 | -0.19 | enough cells in well | 284 | 196 | inactive |
| Plet1 (placenta expressed transcript 1) | SID315475332 | -0.27 | enough cells in well | 176 | 84.3 | inactive |
| Ptpre (protein tyrosine phosphatase receptor type E) | SID315468811 | -0.05 | enough cells in well | 326 | 187 | inactive |
| Vmn1r56 (vomeronasal 1 receptor 56) | SID315475780 | 0.84 | enough cells in well | 132 | 132 | inactive |
| Neo1 (neogenin) | SID315468132 | -0.7 | enough cells in well | 228 | 135 | inactive |
| Snx20 (sorting nexin 20) | SID315474261 | 0.15 | enough cells in well | 191 | 196 | inactive |
| Zfp867 (zinc finger protein 867) | SID315479365 | 2.87 | enough cells in well | 290 | 312 | inactive |
| Rpl35a (ribosomal protein L35A) | SID315471828 | -1.5 | enough cells in well | 60.8 | 65.9 | active |

Sorted by “Tnf reporter intensity, replicate 2” (high to low): some entries from above
| gene symbol | PubChem SID | Tnf reporter robust z-score | fewer than 50 cells in well | Tnf reporter intensity, replicate 1 | Tnf reporter intensity, replicate 2 | outcome |
| --- | --- | --- | --- | --- | --- | --- |
| Trp53inp1 | SID315472035 | -0.05 | enough cells in well | 236 | 215 | inactive |
| Kcnt1 (potassium channel, subfamily T, member 1) | SID315478576 | -0.82 | enough cells in well | 102 | 116 | inactive |
| Pum2 (pumilio RNA-binding family member 2) | SID315475759 | -0.42 | enough cells in well | 125 | 97.5 | inactive |
| Gm5114 (predicted gene 5114) | SID315481601 | – | fewer than 50 cells per well; well left out of calls | 146 | 52 | inactive |
| Urgcp (upregulator of cell proliferation) | SID315474432 | – | fewer than 50 cells per well; well left out of calls | 114 | 40 | inactive |
